PubChem BioAssay AID1259254, NCATS | 2017
In all, the deposit lists about 59,000 reagents; shown is an unselected part. Over the whole deposit, about 1,550 (2.6%) are marked active. 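G2 share is only a proxy for re-replication; each gene was hit by three separate siRNAs, and active genes were retested.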 Unmarked entries are inactive. Reagents against one gene are numbered here. Not all columns of the deposit are shown. Not given: the amount of reagent.

Screen: 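Finding genes that stop cells copying their DNA twice in one cycle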 (primary screen)
Cell system: human HCT116 colorectal cancer cells
Knock-down reagent: single siRNA against human genes
Timing: 3 days
Read-out: 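Nuclei stained with Hoechst and imaged; cell-cycle phase assigned by DNA content; G2 share scaled per plate, non-targeting siRNA 0%, GMNN siRNA 100%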
Direction: G2 robust z-score: higher = more G2 cells, more excess DNA replication
Rule for the call: 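Active siRNAs have a G2 robust z of 5 or more median absolute deviations over the median, which in these data means about 38% or higher of GMNN control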

BMPR2 #1 scored G2 robust z-score 0.482.
After knock-down of BMPR2 #2, the screen gave G2 robust z-score -1.26.
With knock-down of BMPR2 #3, the record shows G2 robust z-score -0.385.
Knock-down of RMI1 #1 resulted in: G2 robust z-score 1.92.
Against RMI1 #2 the deposit lists G2 robust z-score -0.302.
For RMI1 #3 the deposit lists G2 robust z-score -1.05.
LRRC27 #1 showed G2 robust z-score 0.299.
With knock-down of LRRC27 #2, the record shows G2 robust z-score 4.92.
Silencing of LRRC27 #3 resulted in: G2 robust z-score -0.236.

Copied from above for reference:
LRRC27 #2 | G2 robust z-score = 4.92
LRRC27 #3 | G2 robust z-score = -0.236

Next results:
After knock-down of LOC728158 #1, the record shows G2 robust z-score 0.0902.
LOC728158 #2 gave G2 robust z-score 0.18.
Depletion of LOC728158 #3 gave: G2 robust z-score 0.577.
After knock-down of MAOB #1, the record shows G2 robust z-score -0.866.
With knock-down of MAOB #2 the results were G2 robust z-score 1.3.
Against MAOB #3 the deposit lists G2 robust z-score -0.309.
Silencing of GSN #1 came out at: G2 robust z-score 2.07.
GSN #2 scored G2 robust z-score -0.321.
Silencing of GSN #3 resulted in: G2 robust z-score -0.0732.
Silencing of CBX1 #1 came out at: G2 robust z-score -0.294.
CBX1 #2 scored G2 robust z-score 0.856.
CBX1 #3 gave G2 robust z-score -1.21.
Against RPS23 #1 the deposit lists G2 robust z-score 4.73.
Knock-down of RPS23 #2 resulted in: G2 robust z-score 2.66.
After knock-down of RPS23 #3 the results were G2 robust z-score 3.48.
